Literature values, collected in patent US5969174A, “Competitive inhibitors of glyoxalase I and method of generating such competitive inhibitors inside tumor cells” (priority 1998, dated 1999).
At least one structure is not confirmed: it was looked up by name or label, or the drawing left a doubt.

Tested on: GlxII (PC-12 cell extract)
Conditions: smaller with GlxII; cited from earlier work

## N[C@@H](CCC(=O)N[C@@H](CSC(=O)OCC1c2ccccc2-c2ccccc21)C(=O)NCC(=O)O)C(=O)O [S-fluorenylmethoxycarbonyl-glutathione]
  Ki with GlxII versus GlxI of PC-12 cell extract: about 3 -fold
